Results as given in US20070113297A1.
Results are given in words; binding and its absence hold for the method and conditions named. Some entries that bind do so weakly or less than the wild type.

Target: T1, mouse signal regulatory protein (SIRP)α (mouse) (UniProt P97797)
T1 sequence (looked up): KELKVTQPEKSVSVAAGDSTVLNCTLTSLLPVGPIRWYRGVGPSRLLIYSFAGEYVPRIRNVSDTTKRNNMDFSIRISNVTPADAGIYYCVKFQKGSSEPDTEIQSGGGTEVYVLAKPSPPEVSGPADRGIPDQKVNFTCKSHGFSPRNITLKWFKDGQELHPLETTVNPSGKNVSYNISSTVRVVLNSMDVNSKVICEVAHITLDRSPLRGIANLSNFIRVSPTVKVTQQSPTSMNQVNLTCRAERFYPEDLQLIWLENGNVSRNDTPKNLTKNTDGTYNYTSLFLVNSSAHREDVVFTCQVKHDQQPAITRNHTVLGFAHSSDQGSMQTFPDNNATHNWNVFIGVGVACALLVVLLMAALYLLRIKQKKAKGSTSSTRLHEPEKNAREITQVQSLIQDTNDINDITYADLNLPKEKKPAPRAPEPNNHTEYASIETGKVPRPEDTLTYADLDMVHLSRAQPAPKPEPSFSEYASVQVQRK
Test: WT mouse RBCs on WT mouse macrophages; SIRPα phosphotyrosine IP/Western blot

binding: binds
B1: mouse CD47 (ligand, UniProt Q61735 19-303, looked up)
chain: QLLFSNVNSIEFTSCNETVVIPCIVRNVEAQSTEEMFVKWKLNKSYIFIYDGNKNSTTTDQNFTSAKISVSDLINGIASLKMDKRDAMVGNYTCEVTELSREGKTVIELKNRTVSWFSPNEKILIVIFPILAILLFWGKFGILTLKYKSSHTNKRIILLLVAGLVLTVIVVVGAILLIPGEKPVKNASGLGLIVISTGILILLQYNVFMTAFGMTSFTIAILITQVLGYVLALVGLCLCIMACEPVHGPLLISGLGIIALAELLGLVYMKFVASNQRTIQPPRNR
